Data published in the supplement of paper PMC8728848.
Some of the results follow.

What was measured:
Assay in all cases: glycan array binding signal (z-score within array); higher = stronger binding
Conditions in all cases: glycan notation: IUPAC condensed, linker removed
Fuc(a1-2)Gal = molecular target: Fuc(a1-2)Gal
In short: (§1)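 Arrays were curated from the Consortium for Functional Glycomics database, 3228 in total, and kept only where the protein sequence was available. Binding is expressed as a within-array Z-score. This score was averaged across arrays of the same protein sequence at different concentrations or buffers and across linkers, and negative values can be read as non-binding.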

Fuc(a1-2)Gal(b1-3)GalNAc = molecular target: Fuc(a1-2)Gal(b1-3)GalNAc
In short: as §1

[1] = molecular target: Fuc(a1-2)Gal(b1-3)GalNAc(a1-3)[Fuc(a1-2)]Gal(b1-4)Glc
In short: as §1

[2] = molecular target: Fuc(a1-2)Gal(b1-3)GalNAc(a1-3)[Fuc(a1-2)]Gal(b1-4)GlcNAc
In short: as §1

[3] = molecular target: Fuc(a1-2)Gal(b1-3)GalNAc(b1-3)Gal
In short: as §1

[4] = molecular target: Fuc(a1-2)Gal(b1-3)GalNAc(b1-3)Gal(a1-4)Gal(b1-4)Glc
In short: as §1

[5] = molecular target: Fuc(a1-2)Gal(b1-3)GalNAc(b1-4)[Neu5Ac(a2-3)]Gal(b1-4)Glc
In short: as §1

Fuc(a1-2)Gal(b1-3)GlcNAc = molecular target: Fuc(a1-2)Gal(b1-3)GlcNAc
In short: as §1

[6] = molecular target: Fuc(a1-2)Gal(b1-3)GlcNAc(b1-2)Man(a1-3)[Fuc(a1-2)Gal(b1-3)GlcNAc(b1-2)Man(a1-6)]Man(b1-4)GlcNAc(b1-4)GlcNAc
In short: as §1

[7] = molecular target: Fuc(a1-2)Gal(b1-3)GlcNAc(b1-2)Man(a1-3)[Fuc(a1-2)Gal(b1-3)GlcNAc(b1-2)Man(a1-6)]Man(b1-4)GlcNAc(b1-4)[Fuc(a1-6)]GlcNAc
In short: as §1

[8] = molecular target: Fuc(a1-2)Gal(b1-3)GlcNAc(b1-3)Gal(b1-4)Glc
In short: as §1

[9] = molecular target: Fuc(a1-2)Gal(b1-3)GlcNAc(b1-3)GalNAc
In short: as §1

[10] = molecular target: Fuc(a1-2)Gal(b1-3)GlcNAc(b1-3)[Fuc(a1-3)[Gal(b1-4)]GlcNAc(b1-6)]Gal(b1-4)Glc
In short: as §1

[11] = molecular target: Fuc(a1-2)Gal(b1-3)GlcNAc(b1-3)[Gal(b1-4)GlcNAc(b1-6)]Gal(b1-4)Glc
In short: as §1

[12] = molecular target: Fuc(a1-2)Gal(b1-3)GlcNAc(b1-3)[Neu5Ac(a2-6)Gal(b1-4)GlcNAc(b1-6)]Gal(b1-4)Glc
In short: as §1

[13] = molecular target: Fuc(a1-2)Gal(b1-3)[Fuc(a1-4)]GlcNAc
In short: as §1

[14] = molecular target: Fuc(a1-2)Gal(b1-3)[Fuc(a1-4)]GlcNAc(b1-2)Man(a1-3)[Fuc(a1-2)Gal(b1-3)[Fuc(a1-4)]GlcNAc(b1-2)Man(a1-6)]Man(b1-4)GlcNAc(b1-4)GlcNAc
In short: as §1

[15] = molecular target: Fuc(a1-2)Gal(b1-3)[Fuc(a1-4)]GlcNAc(b1-3)[Fuc(a1-3)[Gal(b1-4)]GlcNAc(b1-6)]Gal(b1-4)Glc
In short: as §1

[16] = molecular target: Fuc(a1-2)Gal(b1-3)[Fuc(a1-4)]GlcNAc(b1-3)[Gal(b1-4)GlcNAc(b1-6)]Gal(b1-4)Glc
In short: as §1

Fuc(a1-2)Gal(b1-4)Glc = molecular target: Fuc(a1-2)Gal(b1-4)Glc
In short: as §1

Fuc(a1-2)Gal(b1-4)Glc6S = molecular target: Fuc(a1-2)Gal(b1-4)Glc6S
In short: as §1

Fuc(a1-2)Gal(b1-4)GlcNAc = molecular target: Fuc(a1-2)Gal(b1-4)GlcNAc
In short: as §1

[17] = molecular target: Fuc(a1-2)Gal(b1-4)GlcNAc(b1-2)Man(a1-3)[Fuc(a1-2)Gal(b1-4)GlcNAc(b1-2)Man(a1-6)]Man(b1-4)GlcNAc(b1-4)GlcNAc
In short: as §1

[18] = molecular target: Fuc(a1-2)Gal(b1-4)GlcNAc(b1-2)Man(a1-3)[Fuc(a1-2)Gal(b1-4)GlcNAc(b1-2)Man(a1-6)]Man(b1-4)GlcNAc(b1-4)[Fuc(a1-6)]GlcNAc
In short: as §1

[19] = molecular target: Fuc(a1-2)Gal(b1-4)GlcNAc(b1-2)[Fuc(a1-2)Gal(b1-4)GlcNAc(b1-4)]Man(a1-3)[Fuc(a1-2)Gal(b1-4)GlcNAc(b1-2)Man(a1-6)]Man(b1-4)GlcNAc(b1-4)GlcNAc
In short: as §1

[20] = molecular target: Fuc(a1-2)Gal(b1-4)GlcNAc(b1-3)Gal(b1-4)GlcNAc
In short: as §1

[21] = molecular target: Fuc(a1-2)Gal(b1-4)GlcNAc(b1-3)Gal(b1-4)GlcNAc(b1-3)Gal(b1-4)GlcNAc
In short: as §1

[22] = molecular target: Fuc(a1-2)Gal(b1-4)GlcNAc(b1-3)GalNAc
In short: as §1

[23] = molecular target: Fuc(a1-2)Gal(b1-4)GlcNAc(b1-3)[Fuc(a1-2)Gal(b1-4)GlcNAc(b1-6)]GalNAc
In short: as §1

[24] = molecular target: Fuc(a1-2)Gal(b1-4)GlcNAc6S
In short: as §1

B1: MFG-E8 (Homo sapiens), Q08431 (protein)
chain: MPRPRLLAALCGALLCAPSLLVALDICSKNPCHNGGLCEEISQEVRGDVFPSYTCTCLKGYAGNHCETKCVEPLGLENGNIANSQIAASSVRVTFLGLQHWVPELARLNRAGMVNAWTPSSNDDNPWIQVNLLRRMWVTGVVTQGASRLASHEYLKAFKVAYSLNGHEFDFIHDVNKKHKEFVGNWNKNAVHVNLFETPVEAQYVRLYPTSCHTACTLRFELLGCELNGCANPLGLKNNSIPDKQITASSSYKTWGLHLFSWNPSYARLDKQGNFNAWVAGSYGNDQWLQVDLGSSKEVTGIITQGARNFGSVQFVASYKVAYSNDSANWTEYQDPRTGSSKIFPGNWDNHSHKKNLFETPILARYVRILPVAWHNRIALRLELLGC
What does the source list for B1?
glycan array binding signal (z-score) (Fuc(a1-2)Gal): -0.699; glycan array binding signal (z-score) (Fuc(a1-2)Gal(b1-3)GalNAc): -0.656; glycan array binding signal (z-score) [1]: -0.654; glycan array binding signal (z-score) [2]: -0.511; glycan array binding signal (z-score) [3]: -0.196; glycan array binding signal (z-score) [4]: 0.75; glycan array binding signal (z-score) [5]: 0.211; glycan array binding signal (z-score) (Fuc(a1-2)Gal(b1-3)GlcNAc): -0.382; glycan array binding signal (z-score) [6]: 0.999; glycan array binding signal (z-score) [7]: -0.633; glycan array binding signal (z-score) [8]: -0.126; glycan array binding signal (z-score) [9]: -0.517; glycan array binding signal (z-score) [10]: -0.329; glycan array binding signal (z-score) [11]: -0.539; glycan array binding signal (z-score) [12]: -0.33; glycan array binding signal (z-score) [13]: -0.597; glycan array binding signal (z-score) [14]: 2.2; glycan array binding signal (z-score) [15]: 0.03; glycan array binding signal (z-score) [16]: 0.738; glycan array binding signal (z-score) (Fuc(a1-2)Gal(b1-4)Glc): 0.071; glycan array binding signal (z-score) (Fuc(a1-2)Gal(b1-4)Glc6S): -0.507; glycan array binding signal (z-score) (Fuc(a1-2)Gal(b1-4)GlcNAc): -0.644; glycan array binding signal (z-score) [17]: -0.011; glycan array binding signal (z-score) [18]: -0.173; glycan array binding signal (z-score) [19]: 0.123; glycan array binding signal (z-score) [20]: -0.457; glycan array binding signal (z-score) [21]: -0.587; glycan array binding signal (z-score) [22]: 0.141; glycan array binding signal (z-score) [23]: -0.713; glycan array binding signal (z-score) [24]: 0.023
